Reference: patent publication US20240279618A1, “RECEPTOR TYROSINE KINASE AGONIST, COMPOSITION FOR CELL CULTURE MEDIUM, AND […] MAINTENANCE COMPOSITION” (SEKISUI CHEMICAL CO., LTD., priority 2021, published 2024)
No constants are given. Whether binding was seen depends on the method and setting. Some entries that bind do so weakly or less than the wild type. For part of these data: Sequences can lack the tags named with a protein.

The chains behind the UniProt entries cited, without tags or fusion partners. Residues count along the entry.
FGFR1-DIIDIII (FGFR1 extracellular domain, DII and DIII domains) (P11362, residues 142-365): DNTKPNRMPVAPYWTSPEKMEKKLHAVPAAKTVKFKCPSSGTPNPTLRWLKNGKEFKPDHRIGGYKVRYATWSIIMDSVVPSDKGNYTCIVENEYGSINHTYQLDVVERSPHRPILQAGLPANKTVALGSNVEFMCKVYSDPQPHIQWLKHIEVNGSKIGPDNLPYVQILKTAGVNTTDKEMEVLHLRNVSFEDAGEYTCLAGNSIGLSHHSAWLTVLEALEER
FGFR1-DIII (FGFR1 extracellular domain, DIII domain) (P11362, residues 251-365): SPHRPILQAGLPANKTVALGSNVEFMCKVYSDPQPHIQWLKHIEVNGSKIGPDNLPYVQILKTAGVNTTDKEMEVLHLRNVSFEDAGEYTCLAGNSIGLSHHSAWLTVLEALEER

Assays:
FGFR4-Fc = target: T1, FGFR4-Fc (human, UniProt P22455 22-369, limits assumed); assay: SPR (Biacore T200, CAP single-cycle kinetics), as in Example 5; FGFR4-Fc on the chip, VHH Clone #1 injected in rising concentrations
T1 construct: not shown: Fc part
T1 sequence (looked up): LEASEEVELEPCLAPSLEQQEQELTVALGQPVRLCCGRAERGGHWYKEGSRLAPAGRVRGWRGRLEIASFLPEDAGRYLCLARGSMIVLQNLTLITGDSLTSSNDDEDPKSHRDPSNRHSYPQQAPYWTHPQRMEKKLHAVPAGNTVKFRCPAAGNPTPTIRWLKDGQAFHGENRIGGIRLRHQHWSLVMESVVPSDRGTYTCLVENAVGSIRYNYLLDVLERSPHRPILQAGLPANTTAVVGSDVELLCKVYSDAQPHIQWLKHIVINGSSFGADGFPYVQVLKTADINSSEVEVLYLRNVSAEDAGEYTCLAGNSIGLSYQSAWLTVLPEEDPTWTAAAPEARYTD

[1] = target: FGFR1-DIII (FGFR1 extracellular domain, DIII domain) (human) (UniProt P11362); assay: BLI (Octet 384); VHH Clone #1 immobilised on an Anti-Penta-HIS sensor, FGFR1-DIII in solution, 120 s association and 120 s dissociation [B]
[2] = target: FGFR1-DIIDIII (FGFR1 extracellular domain, DII and DIII domains) (human) (UniProt P11362); assay: BLI (Octet 384); VHH Clone #1 immobilised on an Anti-Penta-HIS sensor, FGFR1-DIIDIII in solution, 120 s association and 120 s dissociation [C]

- binding (FGFR4-Fc): binds
- binding [1]: binds
- binding [2]: binds
B1: VHH Clone #1 (VHH monomer Clone #1) (VHH)
VHH: QLQLVESGGGSVQAGGSLRLSCAASRSLSRFNVWTWYRQAPVKQRELVASITKSGDTNYAESVKGRFIISRDDDKNTVYLQMNNLKSEDTGIYYCAGSYYSGSYLYPSPGGFSVWGQGTQVTVSS
notes: also called VHH #1; FGFR #1; not shown: C-terminal His tag (purified on Ni Sepharose, captured on Anti-Penta-HIS sensor)
